Measured values: patent US11357857B2, “Excipient compounds for protein processing” (COMERA LIFE SCIENCES, INC., priority 2014, dated 2022)
Counter-ions that a name gives are not always drawn.

Assay: Caffeine solubility testing with co-solutes at ambient temperature (Examples 32-33)
Conditions: co-solute 40 mg/mL, caffeine 80 mg/mL
Experimental: Prepared solutions were used either neat or diluted with deionized water.
A small magnetic stir bar was added to the vial, and the solution was allowed to mix vigorously on a stir plate for about 10 minutes.

CCN(CC)CC(=O)Nc1c(C)cccc1C [Lidocaine HCl]
Observation of caffeine dissolution: DND
